At least one compound was matched to its structure with a doubt left.
System: HCV replicon (subgenomic HCV RNA, NS5a)
Experiment: HCV replicon RNA (Northern blot) and NS5a protein (Western blot) levels in HuH7 replicon cell lines
Assay type: cell-based, Hepatitis C virus
Conditions: 50 nM sodium selenite added to all-trans-retinoic acid
Description: The HuH7 pcDNA3 control cells and the replicon cell lines 5-15, 11-7 and 9-13 were plated as described in legend to FIG. 1 and after three days (Day 0) treated for two (Day 2) and four days (Day 4) with 1000U/ml interferon α (IFN-α). Then, cultures were harvested and RNA was prepared. 10 μg of total RNA were used for Northern blot analysis. For detection of GI-GPx (A) Probe 1 was used (see FIG. 1). The membranes were stripped and successively hybridized with probes for PKR (B) and neomycin phosphotransferase (Neo)(C). […]
Western blot analysis was performed using an NS5a antibody (FIG. 5). Expression of the transduced GI-GPx cDNA was monitored with a GI-GPx-specific antiserum (FIG. 6).
Replicon cells were incubated with alpha interferon (IFN-α) for two and four days. Northern blot analyses were performed with 10 μg total RNA. […] Interferon had no effect on the expression of GI-GPx in mock transfected HuH7 cells (cf FIG. 4). […]
Levels of GI-GPx protein expression were measured by Western Blotting using antibodies provided by Prof. Brigelius-Flohe (University of Potsdam, Germany), and RNA levels were measured by Northern blotting using GI-GPx-specific oligonucleotides as probes. […] Concentration of the viral protein NS5a was determined by Western Blotting with an NS5a-specific antibody (Biogenesis, UK).

## O=[Se](O)O [sodium selenite]
  downregulation of HCV-RNA and NS5a protein on addition to all-trans-retinoic acid: further downregulation

Reference: US7341717B2, “Therapeutic targets for treatment of HCV infections, methods of treating HCV infections and compounds useful therefor” (priority 2001, dated 2008)
